Reference: publication doi:10.1101/2022.11.10.515958 (bioRxiv, 2022)
Results are given in words; binding and its absence hold for the method and conditions named. In cells and extracts the contact can be indirect. Some results given as binding are weak or reduced against the parent protein; the word gives no strength. For part of these data: Sequences can lack the tags named with a protein. Values belong to the binder of their own block, whether it stands above or below them.

Tests used:
[1] = target: T1, 4MYC-Whi7 (S. cerevisiae) (UniProt P36167); assay: co-IP
T1 sequence: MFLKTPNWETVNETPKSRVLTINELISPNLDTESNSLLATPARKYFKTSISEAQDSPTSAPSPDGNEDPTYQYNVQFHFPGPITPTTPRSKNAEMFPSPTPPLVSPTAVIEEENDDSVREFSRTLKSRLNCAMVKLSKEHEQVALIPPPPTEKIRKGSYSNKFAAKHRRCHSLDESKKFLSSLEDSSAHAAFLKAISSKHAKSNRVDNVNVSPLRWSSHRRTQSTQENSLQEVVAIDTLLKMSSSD

[2] = target: T2, Whi7 (at endogenous protein level, co-immunoprecipitation of Figure 3E) (S. cerevisiae) (UniProt P36167); assay: co-IP
T2 sequence: T1 sequence

binding [1]: binds
B1: Swi4-5FLAG (protein, UniProt P25302 1-1093)
chain: MPFDVLISNQKDNTNHQNITPISKSVLLAPHSNHPVIEIATYSETDVYECYIRGFETKIVMRRTKDDWINITQVFKIAQFSKTKRTKILEKESNDMQHEKVQGGYGRFQGTWIPLDSAKFLVNKYEIIDPVVNSILTFQFDPNNPPPKRSKNSILRKTSPGTKITSPSSYNKTPRKKNSSSSTSATTTAANKKGKKNASINQPNPSPLQNLVFQTPQQFQVNSSMNIMNNNDNHTTMNFNNDTRHNLINNISNNSNQSTIIQQQKSIHENSFNNNYSATQKPLQFFPIPTNLQNKNVALNNPNNNDSNSYSHNIDNVINSSNNNNNGNNNNLIIVPDGPMQSQQQQQHHHEYLTNNFNHSMMDSITNGNSKKRRKKLNQSNEQQFYNQQEKIQRHFKLMKQPLLWQSFQNPNDHHNEYCDSNGSNNNNNTVASNGSSIEVFSSNENDNSMNMSSRSMTPFSAGNTSSQNKLENKMTDQEYKQTILTILSSERSSDVDQALLATLYPAPKNFNINFEIDDQGHTPLHWATAMANIPLIKMLITLNANALQCNKLGFNCITKSIFYNNCYKENAFDEIISILKICLITPDVNGRLPFHYLIELSVNKSKNPMIIKSYMDSIILSLGQQDYNLLKICLNYQDNIGNTPLHLSALNLNFEVYNRLVYLGASTDILNLDNESPASIMNKFNTPAGGSNSRNNNTKADRKLARNLPQKNYYQQQQQQQQPQNNVKIPKIIKTQHPDKEDSTADVNIAKTDSEVNESQYLHSNQPNSTNMNTIMEDLSNINSFVTSSVIKDIKSTPSKILENSPILYRRRSQSISDEKEKAKDNENQVEKKKDPLNSVKTAMPSLESPSSLLPIQMSPLGKYSKPLSQQINKLNTKVSSLQRIMGEEIKNLDNEVVETESSISNNKKRLITIAHQIEDAFDSVSNKTPINSISDLQSRIKETSSKLNSEKQNFIQSLEKSQALKLATIVQDEESKVDMNTNSSSHPEKQEDEEPIPKSTSETSSPKNTKADAKFSNTVQESYDVNETLRLATELTILQFKRRMTTLKISEAKSKINSSVKLDKYRNLIGITIENIDSKLDDIEKDLRANA

binding [2]: binds
B2: Cks1-ALFA (natural protein, S. cerevisiae, UniProt P20486 1-150, looked up)
chain: MYHHYHAFQGRKLTDQERARVLEFQDSIHYSPRYSDDNYEYRHVMLPKAMLKVIPSDYFNSEVGTLRILTEDEWRGLGITQSLGWEHYECHAPEPHILLFKRPLNYEAELRAATAAAQQQQQQQQQQQQQQQQHQTQSISNDMQVPPQIS

binding [1]: binds
B3: Swi6-5FLAG (protein, UniProt P09959 1-803)
chain: MALEEVVRYLGPHNEIPLTLTRDSETGHFLLKHFLPILQQYHDTGNINETNPDSFPTDEERNKLLAHYGIAVNTDDRGELWIELEKCLQLLNMLNLFGLFQDAFEFEEPETDQDEEDPSHSKLPENKTKSENSKDNISSKRINNLQDMSLDSDAHRELGSPLKKLKIDTSVIDAESDSTPNTARGKPNDDINKGPSGDNENNGTDDNDRTAGPIITFTHDLTSDFLSSPLKIMKALPSPVVNDNEQKMKLEAFLQRLLFPEIQEMPTSLNNDSSNRNSEGGSSNQQQQHVSFDSLLQEVNDAFPNTQLNLNIPVDEHGNTPLHWLTSIANLELVKHLVKHGSNRLYGDNMGESCLVKAVKSVNNYDSGTFEALLDYLYPCLILEDSMNRTILHHIIITSGMTGCSAAAKYYLDILMGWIVKKQNRPIQSGTNEKESKPNDKNGERKDSILENLDLKWIIANMLNAQDSNGDTCLNIAARLGNISIVDALLDYGADPFIANKSGLRPVDFGAGTSKLQNTNGGDENSKMVSKGDYDGQKNGKAKKIRSQLLKNPPETTSLINDVQNLLNSISKDYENETVQYNEKLEKLHKELNEQREELANSREQLANVKQLKDEYSLMQEQLTNLKAGIEEEEESFREESKKLGIIADESSGIDWDSSEYDADEPFKVEFLSDFLEDKLQKNYEGDISKLLEAESKEQIMEQIRNQLPAEKIQSMLPPTVLLKARINAYKRNDKHLTNVLDTISTKQSELENKFRRVLSLCLKIDENKVDNMLDGLLQAISSEDPQDIDTDEMQDFLKKHAS
